Source: paper PMC5769767
No constants are given. Whether binding was seen depends on the method and setting. In cells and extracts the contact can be indirect. Here binding means that the protein was enriched with, or labelled near, the bait; the list need not be complete.

Protein sequences, listed by entry. Tags and fused reporters are not part of them. Lines headed by an entry give the natural chain unless they say otherwise; changes in a name come on top. Residues count along the entry.
UniProt P52948, residues 1-504: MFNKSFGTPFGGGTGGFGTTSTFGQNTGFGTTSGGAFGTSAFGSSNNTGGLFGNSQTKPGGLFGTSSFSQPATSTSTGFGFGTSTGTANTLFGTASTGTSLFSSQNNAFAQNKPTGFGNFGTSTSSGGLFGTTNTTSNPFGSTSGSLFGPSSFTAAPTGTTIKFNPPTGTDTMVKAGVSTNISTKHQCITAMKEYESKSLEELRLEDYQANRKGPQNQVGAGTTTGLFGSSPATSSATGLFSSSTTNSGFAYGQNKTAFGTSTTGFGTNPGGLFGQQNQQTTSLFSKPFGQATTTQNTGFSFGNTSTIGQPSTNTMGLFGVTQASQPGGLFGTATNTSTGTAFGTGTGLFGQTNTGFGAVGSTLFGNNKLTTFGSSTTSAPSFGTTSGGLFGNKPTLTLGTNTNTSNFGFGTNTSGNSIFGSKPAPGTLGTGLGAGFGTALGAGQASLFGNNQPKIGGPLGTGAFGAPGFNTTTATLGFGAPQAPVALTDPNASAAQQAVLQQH
UniProt Q8BFQ4: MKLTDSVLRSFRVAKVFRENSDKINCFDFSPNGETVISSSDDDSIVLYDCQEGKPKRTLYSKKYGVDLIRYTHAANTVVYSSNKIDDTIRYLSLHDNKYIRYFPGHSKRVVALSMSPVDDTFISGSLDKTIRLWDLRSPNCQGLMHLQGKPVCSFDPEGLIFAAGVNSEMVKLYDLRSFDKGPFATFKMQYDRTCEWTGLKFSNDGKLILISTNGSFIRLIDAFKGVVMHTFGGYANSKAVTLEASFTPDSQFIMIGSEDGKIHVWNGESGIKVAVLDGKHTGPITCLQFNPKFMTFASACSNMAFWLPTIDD

B1: Rae1 (protein, UniProt Q8C570 1-368)
chain: MSLFGSTSGFGTGGTSMFGSTTTDNHNPMKDIEVTSSPDDSIGCLSFSPPTLPGNFLIAGSWANDVRCWEVQDSGQTIPKAQQMHTGPVLDVCWSDDGSKVFTASCDKTAKMWDLNSNQAIQIAQHDAPVKTIHWIKAPNYSCVMTGSWDKTLKFWDTRSSNPMMVLQLPERCYCADVIYPMAVVATAERGLIVYQLENQPSEFRRIESPLKHQHRCVAIFKDKQNKPTGFALGSIEGRVAIHYINPPNPAKDNFTFKCHRSNGTNTSAPQDIYAVNGIAFHPVHGTLATVGSDGRFSFWDKDARTKLKTSEQLDQPIAACCFNHNGNIFAYASSYDWSKGHEFYNPQKKNYIFLRNAAEELKPRNKK
B2: Nxf1 (protein, UniProt Q99JX7 1-618)
chain: MADEGKSYNEHDDRVSFPQRRKKGRGPFRWKCGEGNRRSGRGGSGVQSSRFEEDDGDVAMNDPQDGPRVRYNPYTNRPNRRGDGWHDRDRIHITVRRDRAPAERGGAGTSQDGTTKNWFKITIPYGRKYDKTWLLSMIQSKCSVPFNPIEFHYENTRAHFFVEDATTASALKGVNHKIQDRENRRISIIINASAPPYTVQNELKPEQIEQLKLIMSKRYDGNQQALDLKGLRSDPDLVAQNIDVVLNRRSCMAATLRIIEENIPELLSLNLSSNRLYKLDDMSSIVQKAPNLKTLNLSGNELKTERELDKIKGLKLEELWLDRNPMCDNFGDQSSYISAIRERFPKLLRLDGHELPPPISFDVEAPTMLPPCKGSYFGTENLKSLVLRFLQQYYVIYDSGDRQGLLYAYHDGACCSLSIPYNPQNPVRKNLAEYVKDSRNVKKLKEPTQRFRLLKHTRLNVVAFLNELPKTQHDVNAFVVDISAQTSTLLCFSVNGVFKEVDGKSRDSLRAFTRTFIAVPASNSGLCIVNDELFVRNASPEEIQRAFAMSAPTPSSSPVPTLSPEQQEMLQAFSTQSGMNLEWSQKCLQDNNWDYTRSAQAFTLLKAKGEIPEVAFMK

These molecules were tested against GFP-tagged human Nup98ΔCTD (amino acids 1–504) (human) (UniProt P52948) (assay: affinity purification with mass spectrometry; GFP-Nup98ΔCTD captured on GFP-Trap beads from RAW 264.7 lysate (0.1% Triton X-100, 0.25% sodium deoxycholate, 150 mM NaCl, 1 mM EDTA, 10 mM Tris pH 7.5), 2–4 h, four washes in Net-2 buffer; SDS-PAGE gel pieces analysed by mass spectrometry; GFP alone as control).

binding, binds:
Wdr82 (from UniProt Q8BFQ4 1-313)
B1
B2
